# Test results as given in patent US5064862A, “Anticonvulsant method and formulations” (priority 1990, dated 1991).
# Some results were stated once for a whole list of compounds, not compound by compound.
# Tested on: maximal electroshock seizures (MES)
# Conditions: 30 minutes after ip administration, mice
# 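Note: seizures induced by corneal electroshock, 60-cycle alternating current at 50 mA for 0.2 s, protection means no hind limb tonic extension, scored right after the shock.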
row,Compound,"anti-MES activity, active dose, 30 min [mg/kg]"
1,Nc1ccc(C(=O)Nc2ccccc2)cc1 [Example 2],≤ 300
2,"Cc1ccccc1NC(=O)c1ccc(N)cc1 [Example 3, 4-amino-N-(2-methylphenyl) benzamide]",≤ 300
3,Cc1cccc(NC(=O)c2ccc(N)cc2)c1 [Example 4],≤ 300
4,"Cc1ccc(NC(=O)c2ccc(N)cc2)cc1 [Example 5, 4-amino-N-(4-methylphenyl) benzamide]",≤ 300
5,Cc1ccc(NC(=O)c2ccc(N)cc2)c(C)c1 [Example 7],≤ 300
6,Cc1ccc(C)c(NC(=O)c2ccc(N)cc2)c1 [Example 8],≤ 300
7,Cc1ccc(NC(=O)c2ccc(N)cc2)cc1C [Example 9],≤ 300
8,Cc1cc(C)cc(NC(=O)c2ccc(N)cc2)c1 [Example 10],≤ 300
9,CC(C)c1ccccc1NC(=O)c1ccc(N)cc1 [Example 11],≤ 300
10,Cc1cccc(C(C)C)c1NC(=O)c1ccc(N)cc1 [Example 12],≤ 300
11,CCc1cccc(C(C)C)c1NC(=O)c1ccc(N)cc1 [Example 13],≤ 300
